These are yes or no findings as the source states them, for the method shown. Binding seen in cells or lysates may run through a third protein. A result given as binding can be weak or reduced; the word gives no strength. Where a sequence is shown, tags or fusion partners need not be part of it.
How the values were obtained:
[1] = biological target: T1, FILIP d248-685 (3 x FLAG tagged) (rat) (UniProt Q8K4T4); test: co-IP; COS-7 cells transfected with FLAG-tagged FILIP or deletion mutants; immunoprecipitation with anti-FLAG M2 on Protein G Dynabeads, 4°C, 3 hours; blots with anti-Hsc70 or anti-NMHCIIb; in Fig 4E also with expression of Hsc70 or Hsc70 K71M
T1 sequence: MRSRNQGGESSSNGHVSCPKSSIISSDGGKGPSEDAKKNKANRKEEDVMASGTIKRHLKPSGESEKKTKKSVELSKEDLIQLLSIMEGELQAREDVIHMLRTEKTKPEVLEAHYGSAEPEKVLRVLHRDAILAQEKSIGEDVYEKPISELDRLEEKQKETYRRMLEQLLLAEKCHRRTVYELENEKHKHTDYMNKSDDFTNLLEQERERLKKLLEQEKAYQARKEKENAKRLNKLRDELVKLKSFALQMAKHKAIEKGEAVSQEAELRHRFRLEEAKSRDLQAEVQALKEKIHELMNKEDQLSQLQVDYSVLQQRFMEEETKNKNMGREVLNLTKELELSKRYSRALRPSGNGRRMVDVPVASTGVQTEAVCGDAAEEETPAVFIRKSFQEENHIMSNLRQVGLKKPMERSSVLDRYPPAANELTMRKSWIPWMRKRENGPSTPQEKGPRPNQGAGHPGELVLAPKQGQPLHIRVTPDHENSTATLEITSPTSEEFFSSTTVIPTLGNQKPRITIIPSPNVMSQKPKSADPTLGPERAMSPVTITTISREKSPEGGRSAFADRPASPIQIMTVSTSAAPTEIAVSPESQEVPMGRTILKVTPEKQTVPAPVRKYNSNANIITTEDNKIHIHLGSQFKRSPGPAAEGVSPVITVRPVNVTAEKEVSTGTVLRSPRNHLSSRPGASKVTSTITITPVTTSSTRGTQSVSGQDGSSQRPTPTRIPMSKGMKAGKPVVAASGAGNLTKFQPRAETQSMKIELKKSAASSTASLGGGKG

[2] = biological target: T2, FILIP d934-1111 (3 x FLAG tagged) (rat) (UniProt Q8K4T4); test: as above
T2 sequence: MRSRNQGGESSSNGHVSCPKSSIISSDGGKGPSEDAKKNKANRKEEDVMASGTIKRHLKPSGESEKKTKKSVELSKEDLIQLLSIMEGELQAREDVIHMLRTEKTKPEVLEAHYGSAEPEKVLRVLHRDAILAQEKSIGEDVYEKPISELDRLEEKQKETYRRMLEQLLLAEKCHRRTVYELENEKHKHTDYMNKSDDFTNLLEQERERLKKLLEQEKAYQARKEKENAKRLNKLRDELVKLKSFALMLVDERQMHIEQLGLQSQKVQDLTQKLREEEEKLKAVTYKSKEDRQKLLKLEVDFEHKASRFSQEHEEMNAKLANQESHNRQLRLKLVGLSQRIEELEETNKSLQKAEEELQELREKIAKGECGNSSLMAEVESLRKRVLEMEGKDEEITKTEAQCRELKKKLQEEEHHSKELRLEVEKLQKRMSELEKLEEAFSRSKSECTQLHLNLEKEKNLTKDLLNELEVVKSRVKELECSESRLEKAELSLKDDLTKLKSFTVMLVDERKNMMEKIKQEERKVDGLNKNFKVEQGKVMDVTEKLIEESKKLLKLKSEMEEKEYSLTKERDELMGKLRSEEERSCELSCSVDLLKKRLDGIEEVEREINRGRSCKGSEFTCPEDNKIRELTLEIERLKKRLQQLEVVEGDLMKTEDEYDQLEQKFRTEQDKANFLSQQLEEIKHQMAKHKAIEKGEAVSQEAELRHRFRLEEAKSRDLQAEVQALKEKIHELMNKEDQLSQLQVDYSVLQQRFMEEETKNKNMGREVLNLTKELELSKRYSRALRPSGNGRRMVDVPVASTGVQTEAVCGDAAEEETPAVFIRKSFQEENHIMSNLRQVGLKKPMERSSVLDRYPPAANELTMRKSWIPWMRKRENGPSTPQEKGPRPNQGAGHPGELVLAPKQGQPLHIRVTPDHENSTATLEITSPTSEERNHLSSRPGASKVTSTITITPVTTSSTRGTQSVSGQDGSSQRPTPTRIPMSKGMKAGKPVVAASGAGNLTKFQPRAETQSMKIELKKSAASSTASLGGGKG

binding [1]: binds | binding [2]: binds
Substance: non-muscle myosin IIb (endogenous, COS-7 cells)

Reference: paper PMC5325215
